Here are results for 2 molecules from patent US20110178027A1.

Sequences of proteins named here, by UniProt entry; tags and fusion partners are left off. A change or cut given only in a name is not applied to a line headed by its entry.
UniProt Q6UW60: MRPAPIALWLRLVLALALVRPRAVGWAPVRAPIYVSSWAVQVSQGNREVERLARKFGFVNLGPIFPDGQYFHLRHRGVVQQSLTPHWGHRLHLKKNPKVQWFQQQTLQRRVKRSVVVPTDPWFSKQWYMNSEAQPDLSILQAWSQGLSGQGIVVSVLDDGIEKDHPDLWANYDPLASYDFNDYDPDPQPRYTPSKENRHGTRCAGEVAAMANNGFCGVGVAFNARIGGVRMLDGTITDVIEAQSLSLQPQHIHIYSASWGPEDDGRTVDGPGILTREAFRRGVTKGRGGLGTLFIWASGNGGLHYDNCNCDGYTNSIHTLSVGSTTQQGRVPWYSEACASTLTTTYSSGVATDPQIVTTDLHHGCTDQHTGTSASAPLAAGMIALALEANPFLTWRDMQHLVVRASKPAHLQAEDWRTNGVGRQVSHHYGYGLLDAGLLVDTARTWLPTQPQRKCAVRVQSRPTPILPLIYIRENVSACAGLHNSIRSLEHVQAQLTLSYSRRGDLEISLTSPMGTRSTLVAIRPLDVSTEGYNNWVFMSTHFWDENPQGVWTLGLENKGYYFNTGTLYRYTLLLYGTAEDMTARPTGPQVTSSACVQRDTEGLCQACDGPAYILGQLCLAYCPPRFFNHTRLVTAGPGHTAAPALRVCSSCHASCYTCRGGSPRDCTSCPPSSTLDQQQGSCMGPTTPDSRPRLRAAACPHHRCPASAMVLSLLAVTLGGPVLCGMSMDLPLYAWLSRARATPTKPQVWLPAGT

These are yes or no findings as the source states them, for the method shown. A result given as binding can be weak or reduced; the word gives no strength.

The target in this assay is PC4 (UniProt Q6UW60). Briefly: enzyme inhibition assay, fluorogenic substrate PyrRTKR-MCA.

Turning to LLLLLLRVKR (C-terminal amide) […-NH2], the binding entry is “binds”. For LLLLRVKR (C-terminal amide) [LLLLRVKR-NH2], the binding entry is reported as “binds”.
